Assay results taken from article PMC7754455 (Journal of Clinical Pharmacology, 2020).
Several values for one entry are separate records, joined by “and”; a condition that tells them apart may be missing. Equal values may be shown once. Read-outs that look alike come from different tables or passages of the source.

Amino acid sequences for entries named in this document (tags omitted).
UniProt P08684, whole entry: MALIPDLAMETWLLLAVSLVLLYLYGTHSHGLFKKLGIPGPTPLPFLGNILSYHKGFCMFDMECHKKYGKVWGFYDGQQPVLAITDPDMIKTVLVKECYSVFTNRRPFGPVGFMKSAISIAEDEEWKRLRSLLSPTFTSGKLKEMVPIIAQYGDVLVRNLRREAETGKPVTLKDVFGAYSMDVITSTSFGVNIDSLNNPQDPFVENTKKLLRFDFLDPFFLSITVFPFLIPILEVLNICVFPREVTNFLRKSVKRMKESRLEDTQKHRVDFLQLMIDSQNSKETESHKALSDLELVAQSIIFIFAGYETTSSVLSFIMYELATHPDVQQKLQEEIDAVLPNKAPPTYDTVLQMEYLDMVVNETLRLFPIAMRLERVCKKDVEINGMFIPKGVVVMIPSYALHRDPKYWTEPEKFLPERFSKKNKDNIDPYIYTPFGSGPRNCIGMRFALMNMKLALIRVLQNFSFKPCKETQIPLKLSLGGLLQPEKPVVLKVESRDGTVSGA

Experiments:
[1] = Clinical DDI study part 1: plasma PK of molibresib alone and with itraconazole; settings: for AUC / Cmax / Tmax / half-life: female, human, in vivo; for AUC: AUC0‐∞; for AUC / Cmax / half-life: geometric mean (CVb%); for Tmax: median (range)
[2] = Blood and plasma binding and permeability PBPK input parameters
[3] = cited from earlier work; for Cmax, CV% Observed: patients BET115521, value (CV%), ref Piha‐Paul et al. 6
CYP3A4 = CYP3A4 (Homo sapiens, UniProt P08684)
[4] = Clinical DDI study part 2: plasma PK of molibresib alone and with rifampicin
[5] = Safety and tolerability in the DDI study
[6] = cohort 1 of part 1, initial evaluation
[7] = 10 mg, part 1 cohort 1 n = 6, molibresib 10 mg alone
[8] = 10 mg, part 1 cohort 2 n = 7, molibresib 10 mg alone
[9] = part 1 cohort 1 n = 6, molibresib 5 mg + itraconazole
[10] = part 1 cohort 2 n = 7, molibresib 5 mg + itraconazole

SMILES: CCNC(=O)C[C@@H]1N=C(c2ccc(Cl)cc2)c2cc(OC)ccc2-n2c(C)nnc21 [Molibresib]
- increase in AUC0‐∞ with itraconazole [1, 6]: 4 fold and 3.97 fold
- increase in Cmax with itraconazole [1, 6]: 48%
- AUC [1, 7]: 672 ng·h/mL
- AUC [1, 8]: 683 ng·h/mL
- Cmax [1, 7]: 167 ng/mL
- Cmax [1, 8]: 176 ng/mL
- Tmax [1, 7]: 0.52 h
- Tmax [1, 8]: 0.52 h
- half-life ([1]; 10 mg, t1/2, part 1 cohort 1 n = 6, molibresib 10 mg alone): 7.7 h
- half-life ([1]; 10 mg, t1/2, part 1 cohort 2 n = 7, molibresib 10 mg alone): 6.6 h
- AUC [1, 9]: 1330 ng·h/mL
- AUC [1, 10]: 1470 ng·h/mL
- Cmax [1, 9]: 124 ng/mL
- Cmax [1, 10]: 161 ng/mL
- Tmax [1, 9]: 1.5 h
- Tmax [1, 10]: 0.52 h
- half-life ([1]; t1/2, part 1 cohort 1 n = 6, molibresib 5 mg + itraconazole): 10.2 h
- half-life ([1]; t1/2, part 1 cohort 2 n = 7, molibresib 5 mg + itraconazole): 12.5 h
- increase in AUC0‐∞ in the presence of itraconazole ([1]; part 1 overall): 4.15 fold
- increase in Cmax in the presence of itraconazole ([1]; part 1 overall): 66%
- fraction unbound [2]: 0.2
- Papp ([2]; not told): 8.4 ×10⁻⁶ cm/s
- Cmax, CV% Observed ([3]; 60 mg oral dose): 889.5 (24.5) ng/mL
- Cmax, CV% Observed ([3]; 100 mg oral dose): 1081 (38.8) ng/mL
- CYP3A4 contribution to hepatic CL ([3]; estimate from first-time in-patient study, ref BET115521): 99%
- dose dependence of Cmax and AUC ([3]; patients, 2 to 125 mg once daily): dose‐proportional
- time of maximum concentration (Cmax) after dosing ([3]; single and repeat oral doses, patients): ≤ 2 h
- dose excreted unchanged in urine over 24 hours ([3]; used to set renal clearance in PBPK model, ref study BET115521): ~10%
- pKb: 7.49
- enzyme responsible for metabolism and generation of 2 major metabolites (CYP3A4; 7 CYP enzymes evaluated (CYP1A1, 2C9, 2C8, 2C19, 2D6, 2B6, 3A4)): CYP3A4 is the predominant enzyme
- inhibition of molibresib metabolism by azamulin (CYP3A4; in vitro, azamulin (specific CYP3A4 inhibitor)): complete inhibition
- decrease in AUC0‐∞ with rifampicin coadministration ([4]; dose-normalized, part 2): approximately 91%
- decrease in Cmax with rifampicin coadministration ([4]; dose-normalized, part 2): ~80%
- AUC ([4]; female, human, in vivo, 10 mg): 669 ng·h/mL
- Cmax ([4]; female, human, in vivo, 10 mg): 158 ng/mL
- Tmax ([4]; female, human, in vivo, 10 mg): 0.52 h
- half-life ([4]; female, human, in vivo, 10 mg): 5.8 h
- subjects reporting AEs ([5]; molibresib administered alone, both parts): 3 subjects
- subjects reporting AEs ([5]; molibresib administered alone, part 1): 1 subjects
- subjects reporting AEs ([5]; molibresib administered alone, part 2): 2 subjects
- subjects reporting AEs ([5]; molibresib with itraconazole, part 1): 3 subjects
